No constants are given. Whether binding was seen depends on the method and setting. Some results given as binding are weak or reduced against the parent protein; the word gives no strength.
Target: selenomethionyl serine acetyltransferase (SAT) from Escherichia coli, recombinant, expressed from pQE-SAT (Escherichia coli) (UniProt P0A9D4)
Test: X-ray crystal structure (MAD, 2.7 Å); self-association of subunits

B1: selenomethionyl serine acetyltransferase (SAT) from Escherichia coli, recombinant, expressed from pQE-SAT (enzyme)
chain: MPCEELEIVWNNIKAEARTLADCEPMLASFYHATLLKHENLGSALSYMLANKLSSPIMPAIAIREVVEEAYAADPEMIASAACDIQAVRTRDPAVDKYSTPLLYLKGFHALQAYRIGHWLWNQGRRALAIFLQNQVSVTFQVDIHPAAKIGRGIMLDHATGIVVGETAVIENDVSILQSVTLGGTGKSGGDRHPKIREGVMIGAGAKILGNIEVGRGAKIGAGSVVLQPVPPHTTAAGVPARIVGKPDSDKPSMDMDQHFNGINHTFEYGDGI
modifications: selenomethionine in place of methionine (selenomethionyl SAT)
Q: Which binding does the source give for B1 here?
A: binds

— patent publication US20050112731A1
